The whole screen tested about 31,000 sequences, of which about 1,400 (4.5%) were called active.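 How the source made its calls: active means median seed-adjusted z-score above 1 or below -1; inactive means the rest.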 Some of the results follow.

A short description of the assay: Novel Modifiers of Survival Motor Neuron (SMN) Protein: Gene Identification via Genome-wide siRNA Screen.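 Further: luminescence tracks full-length SMN protein made from the SMN2 reporter.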 As to conditions: HEK293T SMN2-luciferase reporter, siRNA knockdown, 72 h; actives lie on both sides. The method in brief: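 siRNA screen, 10418 genes ×3 siRNAs; 1 pmol/well, lipid reverse transfection into HEK293T SMN2-luc reporter line. 72 h, 37 °C, 5% CO2; ONE-Glo readout. Data: neg-ctrl normalized, log10, MAD; hit = MAD >1.0 or < -1.0.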
In general terms: A reporter such as luciferase makes a cellular process visible.
Take CGUUCGUGGUCAACAGGAATT against WBSCR17: the median seed-adjusted z-score is inactive: 0.
As for CGAAAGGAGUCUUCACCAATT against PRDX6, the figure is inactive: -0.0302; as for GCUACAUGAUGGUAUCCUUTT against FZD3, inactive: -0.0208; as for CCACCAACGAAGAACUGGATT against STX1B, inactive: 0.229.
Consider CAAUGAGACGGAGUUGACATT against KRT7, for which the median seed-adjusted z-score was inactive: 0.
For the sequence CGGACCGGCAGAGAACAAATT against PLA2G10, the median seed-adjusted z-score was active: 1.07.
In the case of GAACUAAUAGGGACUAGAATT against SLC16A13 it was inactive: -0.0537; in that of CAUGUACUGUACUUCCCAATT against HSD11B2, inactive: 0.215; in that of GGAAGGAAUUCAACCGGAUTT against ZNF366, inactive: 0.585.
With AGUAUGUGGUACAACUGAATT against CCRK, the median seed-adjusted z-score was inactive: -0.47.
In the case of GGCAAUACCUUAGUGCUCATT against ALDH1L2 it was inactive: 0.
As to GGAGAAGCCUUAGUAGGCATT against SRPR, the median seed-adjusted z-score is inactive: 0.242.
As for GGGAUAUGCUUGUUAAUAUTT against BLMH, the figure is inactive: -0.156; as for GAACGUAACAGACAGGUGATT against MEF2C, inactive: -0.632.
Consider CGGGAGUGGUUUUCAGAGATT against APOC1, for which the median seed-adjusted z-score is inactive: 0.
As to GCAGAAGACUAGAGAGACUTT against ABCC5, the median seed-adjusted z-score is inactive: 0.00533.
As to GAAACCAUCCAAUCCAAGATT against TXNDC2, the median seed-adjusted z-score was active: -1.29.
As for GCUGGAGCUAUGUCACUCATT against NEIL1, the figure is inactive: -0.168; as for AGAAACUGAUGAGAACGGATT against WWOX, inactive: -0.583.
Take GGACCUUAGCAGCAACAAUTT against LRIG3: the median seed-adjusted z-score is inactive: 0.882.
In the case of CUUCAAUACUUGACUGUAUTT against MGAT2, the median seed-adjusted z-score is inactive: -0.124.
As for CGUGAAGAAGUAUCGAUAUTT against DLG2, the figure is inactive: 0.133; as for GAAGAACAAAGGUGCUAAATT against PDCD11, inactive: -0.335.
For AGACGGAACUCUGUCACAATT against ZFP36, the median seed-adjusted z-score is inactive: 0.106.
Take GAGACUCAAUGAACUAUGUTT against ABCD2: the median seed-adjusted z-score was inactive: -0.102.
In the case of GCCUGACACUGUAUGGGCUTT against TNXB it was inactive: -0.0996; in that of GACUGACGAUGACACGGAATT against KPNA6, active: -1.54; in that of GCAGGUCACGGUUGAUGUATT against FANCA, inactive: 0.418.
As for GGAGGACUUCUGUCAAACATT against UNQ9391, the figure is inactive: -0.312.
In the case of GGUCUGGACAUCUAUCUCATT against CD2 it was inactive: 0.00791; in that of GGACAUUUGAUAUCGAGGATT against B3GNT2, inactive: -0.0427; in that of CCUGAUGAAAGAUUACUUUTT against ADCY9, inactive: 0.269.
Turning to CAUCAAUGGUCAUAAUGCATT against HNRNPA2B1, the median seed-adjusted z-score is active: 1.33.
With CCCAACUCAUUAUAGCAUUTT against F8, the median seed-adjusted z-score was inactive: -0.0992.
As for CUCUGACAGUGGUACAACATT against PPM1G, the figure is inactive: 0.073; as for GAAUUUCUAGGGCAAAGAATT against RGS13, inactive: 0.0487.
In the case of CUCGGGAGAUGGAAAGAAATT against UPB1 it was inactive: -0.0341; in that of GAUACUACCCUGAUCAUAUTT against TMTC3, inactive: 0.266.
In the case of GAUUAAUGACUAUUUGAGATT against SERPINA11 it was inactive: -0.0879; in that of GCAUUGUCGUUUAUCGAGUTT against AFF3, inactive: -0.00277.
For GCUUUGAGUUGGACUAUGATT against TRIM10, the median seed-adjusted z-score is inactive: -0.0934.
CUCUGACCCUGGAUCUUGATT against SLC29A2: the median seed-adjusted z-score is inactive: -0.0569.
For the sequence CAUCUUAAGUUGCAUCAUATT against KCNJ16, the median seed-adjusted z-score is inactive: -0.705.
For the sequence ACAUGGUGGUUACCAGGAATT against PIP4K2B, the median seed-adjusted z-score was inactive: 0.17.
With GCACCAAUGAGAUUGAUCUTT against CHRNG, the median seed-adjusted z-score is inactive: 0.221.
As for GGAUGGACCUCUACUUCUUTT against SLC15A3, the figure is inactive: 0; as for GGAAGAUCAUAGAAGUUGATT against SLC1A1, inactive: 0.0967.
Take GUCCUUUGUUCAAACCAGATT against ZNF543: the median seed-adjusted z-score was inactive: 0.
Regarding GCUGAAGAUUAACAUGAAATT against NTN1, the median seed-adjusted z-score is inactive: -0.0419.
With GCUACAGACGCAACGAUUATT against CLK2, the median seed-adjusted z-score was inactive: -0.0591.
GGCUCUCUGUCAACUAUGATT against MGC21874: the median seed-adjusted z-score is inactive: -0.354.
In the case of CAAUGACUAUGAAUAAGUATT against SLC9A2 it was active: -1.02; in that of CCUCAGACAUUAUGACAAATT against RNF144B, inactive: 0.642; in that of ACAGCAUCCUUUGCGCUGATT against GTPBP1, inactive: -0.18.
GGAGACUGGAGAUACCUUUTT against PGLYRP2: the median seed-adjusted z-score was inactive: -0.697.
In the case of GACUGUCGCUGGUUGGAGATT against ACPT it was inactive: -0.114.
As for CUACUUCCGCAACCAGCUATT against UNC119, the figure is inactive: 0.171.
In the case of CCAAGAGACUGGAUCGUGATT against CDH7, the median seed-adjusted z-score is inactive: 0.
Take GGUGGAAAAUGACCGGGAATT against SFRS15: the median seed-adjusted z-score was inactive: 0.22.
As for GCAUUUACUGGAGCAUGUATT against GFRA1, the figure is inactive: 0.125; as for GGAUCGGGUUUAUGGAGCATT against MRC1, inactive: 0.179; as for GCAUUUGAGAAGACCGUGATT against PPP1R3B, inactive: -0.298.
As for GCCUCAAAGUGGAGUACGATT against TLE3, the figure is inactive: -0.451; as for CUUCGACUGUGCUUACUUUTT against AKR1CL2, inactive: -0.949.
In the case of CAAACAGCAGCAAAUCAAATT against TCEA3 it was inactive: -0.28; in that of GAAACUAUAUCCUACUGAATT against CACNA1C, inactive: 0; in that of GGCUCUUGACAGCACGACATT against CSRP3, inactive: 0.15.
As for GCCACGCAAAACUCCCUGATT against CRCT1, the median seed-adjusted z-score was inactive: -0.146.

The values above are taken from PubChem BioAssay AID1347426 (Functional Genomics Laboratory (NCATS/FGL), 2020).
